# Results published in PubChem BioAssay AID2685 (National Center for Advancing Translational Sciences (NCATS), 2010).
# The other results are listed elsewhere or left out. Further columns of the screen follow, without active or inactive calls. Compounds called inactive in the main read-out are mostly missing here. Words in brackets tell the shape of the fitted curve; partial curves, single points and poor fits give uncertain potencies.
# Assay: qHTS Assay for Lipid Storage Modulators in Drosophila S3 Cells;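 as to cell number change: cells counted by Cell Tracker Red CMTPX staining in the red channel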
# Conditions: BODIPY lipid droplet fluorescence, 18-24 h; for cell number change: measured here: cell count max response, cells fed with added oleic acid
# Summary of the method: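 Drosophila S3 cells got compounds at several concentrations plus oleic acid (400 uM solution). Laser-scanning cytometry with 488 nm excitation read lipid droplets at 500-530 nm and cells at 575-640 nm. Percent activity was relative to 20 uM Triacsin C.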
# [1] = measured here: cell number channel AC50, cells fed with added oleic acid
# [2] = measured here: lipid fluorescence (Fed channel) AC50, cells fed with added oleic acid
SMILES,cell number change [%],AC50 [1],AC50 [2]
O=C(NNC(=O)c1cccnc1)NC12CC3CC(CC(C3)C1)C2,-32.4,"4.11 µM [falling, full curve]","29.1 µM [falling, single point]"
CC(C)c1ccc(CN2CCSCC2)cc1,20.5,–,"0.00411 µM [rising, full curve, poor fit]"
N#CC1=C(N)N(c2ccccc2)C2=C(C(=O)CCC2)C1c1ccsc1 (stereo not given),-7.29,–,"0.326 µM [rising, full curve]"
CCOc1cc(N2CCOCC2)c(OCC)cc1NC(=O)c1[nH]c(C)c(C(C)=O)c1C,-21.8,"3.26 µM [rising, single point]","2.91 µM [rising, partial curve]"
O=[N+]([O-])c1ccc2nc(C3CCCCC3)[nH]c2c1,-22.2,–,–
CN(C)C(CNc1ncccn1)c1ccccc1 (stereo not given),7.89,–,"1.26 µM [falling, partial curve]"
CSCCC(NS(=O)(=O)c1ccc(Cl)cc1)C(=O)OCC(=O)N(C(C)C)C(C)C (stereo not given),2.84,–,–
CC(=O)c1cccc(OCc2cc(C(=O)N3CCC(N4CCCCC4)CC3)no2)c1,81.2,"18.4 µM [rising, partial curve]",–
COc1ccc(NC(=O)CSc2nccn2Cc2ccco2)cc1,0.578,–,"6.51 µM [falling, partial curve, poor fit]"
O=C(Nc1ccc(N2CCN(C(=O)c3ccco3)CC2)c(Cl)c1)c1cccnc1,-3.25,–,–
O=C1CCC([N+](=O)[O-])C(c2ccccc2C(F)(F)F)N1 (stereo not given),-7.82,–,"3.26 µM [falling, full curve, poor fit]"
CC(C)OCCCNC(=O)C(C)Oc1ccccc1 (stereo not given),-9.86,"0.00411 µM [falling, full curve, poor fit]","23.1 µM [falling, partial curve]"
O=C(Nc1ccncc1)Nc1cccc(C(F)(F)F)c1,-38.1,"32.6 µM [falling, single point]",–
Nc1nc(Nc2ccccc2)nc(N2CCCC2)c1[N+](=O)[O-],-31.5,"18.4 µM [falling, single point]",–
Cc1cc(/C=N/NC(=O)c2ccc(CN3CCOCC3)cc2)c(C)n1-c1ccccc1,–,"6.51 µM [falling, single point]",–
O=C(CSc1nnc2ccc(-c3ccc(F)cc3)nn12)N1CCCC1,-35.2,"0.206 µM [falling, full curve, poor fit]","0.517 µM [falling, full curve]"
Cc1nc(C)c(N)c(=O)[nH]1,-7.95,"3.66 µM [falling, single point]","4.11 µM [falling, single point]"

# Limited to AC50 [1], for 2 of the compounds above:
SMILES	AC50 [1]
CC(C)OCCCNC(=O)C(C)Oc1ccccc1 (stereo not given)	0.00411 µM [falling, full curve, poor fit]
O=C(Nc1ccncc1)Nc1cccc(C(F)(F)F)c1	32.6 µM [falling, single point]
